Results reported in PubChem BioAssay AID1347426 (Functional Genomics Laboratory (NCATS/FGL), 2020).
About 1,400 (4.5%) of roughly 31,000 sequences were called active.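 How the source made its calls: active means median seed-adjusted z-score above 1 or below -1; inactive means the rest.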 The list shows a part of the results.

Experiment: Novel Modifiers of Survival Motor Neuron (SMN) Protein: Gene Identification via Genome-wide siRNA Screen
Conditions: HEK293T SMN2-luciferase reporter, siRNA knockdown, 72 h; actives lie on both sides
Description: Spinal muscular atrophy (SMA) is the most common neuromuscular autosomal recessive disorder and one of the leading genetic causes of infant death. SMA results from mutations inducing loss of function or deletion in the survival of motor neuron-1 gene (SMN1), leading to deficiency of the survival motor neuron (SMN) protein. Although a second nearly identical gene, SMN2, is retained in humans, its expression primarily produces an aberrantly spliced isoform that is largely unstable and quickly degraded. We performed a genome-wide RNAi screen using a cell-based reporter assay to identify genes and pathways that modulate SMN protein stability. The screen identified over 200 genes that led to the greatest increase or decrease in luciferase expression.
Using HEK293T cells stably expressing a luciferase reporter that combines the promoter and splicing based cassettes in tandem with the major portion of the native SMN2 cDNA with luciferase, we performed a genome-wide RNAi screen to identify modulators of SMN protein levels. Luciferase is expressed when full-length SMN protein is generated with luminescence signal proportional to SMN protein levels. Our luciferase-based reporter assay was used to screen Ambion Silencer Select Human Druggable Genome siRNA library (10418 genes, 3 unique siRNAs per gene) using lipid-based reverse transfection.
Briefly, 1 pmol of each siRNA was spotted to a well of a 384-well plate (Corning, Corning, NY) and 20 microL of serum-free DMEM containing […] of Lipofectamine RNAiMax (Life Technologies, Carlsbad, CA) was then added to each well. Transfected cells were maintained at 37 degrees C in 5% CO2 for 72 hours, 20 microL of ONE-Glo Reagent (Promega) was added to wells for luciferase quantification. Raw luminescence reads were normalized to Ambion(R) Silencer(R) Negative Control #2 siRNA, then log10 transformed. A robust statistical measure of median absolute deviation (MAD) to standardize siRNA activities from each screen. Common Seed Analysis was used to help prioritize clean hits as opposed to those appearing to arise from seed based off-target effects. Candidate modulators were defined as the genes having a MAD score greater than 1.0 or less than -1.0.

| Sequence | median seed-adjusted z-score |
| --- | --- |
| UGACAUACAUGGAAUAGCATT against KLK6 | inactive: 0.176 |
| GUCUUCGAUUCUUAGCUUATT against DCC | inactive: 0.303 |
| CAUGCGUUCUCUGAAGUCATT against PTCH2 | inactive: -0.191 |
| CAAGUUCUCUUAUCCACCATT against PPP1R15A | inactive: 0.539 |
| AGGCAUUCCGAGUCUUUGATT against CALM1 | inactive: 0.355 |
| AGCUACUACUAUCCCAUGATT against LENG8 | inactive: -0.00539 |
| GAACCACUGCAUCACCUGUTT against SCUBE1 | inactive: 0.673 |
| CGACAAGUUUUGUGAGACUTT against LRAT | inactive: 0.345 |
| GCUGUUAAGUAUGCCCUUATT against AKR1A1 | inactive: -0.255 |
| GUUCUAUGGUGAUGACAUATT against C2 | inactive: -0.0549 |
| GCCUCAAGCCUUCGCAGAATT against DOC2A | inactive: 0.299 |
| CUAUGAACAAGGUUGCAGATT against NDUFV2 | inactive: -0.794 |
| AGGAGGCUUUCAACAUGAUTT against MYL9 | inactive: 0.571 |
| GGAGAUAUCUGUGCCUGUATT against AP1M2 | inactive: 0.0641 |
| GGAACAUUGACGGCGAAUATT against ANGPTL2 | inactive: 0.141 |
| GCUCCUGAGUGAAAACGGATT against ALAD | inactive: 0.0952 |
| GCAUCCUGGUUUUAGACGATT against ABCC3 | inactive: -0.549 |
| GGAUUAUGAGUACCGAGAATT against MAP3K14 | inactive: -0.0609 |
| CACCAGCACUUUAUACACUTT against RHOC | inactive: -0.579 |
| GCUCCAACUUCAGCACGCATT against ZNF500 | inactive: 0 |
| AGAAGGUUGUUUUCGAGCATT against TPI1 | inactive: 0.447 |
| CGAGUUAAAUUGACAUUAATT against PTPN12 | inactive: -0.507 |
| CCUGAAAUCAUAGAGUUAATT against KCNMA1 | inactive: 0 |
| GCAGAAUACAAGAGCUUGATT against EID2 | active: -1.04 |
| UGGAUCAUGUCAUUCAAUUTT against COX8A | inactive: -0.0749 |
| ACCGAGAAAUGCUAGAAAATT against PPM1L | inactive: 0.4 |
| GAAACUUGAUUGAUCUUUATT against MITF | inactive: -0.249 |

An excerpt of these results, with bars between the fields.
Sequence | median seed-adjusted z-score
AGGCAUUCCGAGUCUUUGATT against CALM1 | inactive: 0.355
AGCUACUACUAUCCCAUGATT against LENG8 | inactive: -0.00539
GAACCACUGCAUCACCUGUTT against SCUBE1 | inactive: 0.673

Exported comma-delimited: part of the list above.
Sequence,median seed-adjusted z-score
CGACAAGUUUUGUGAGACUTT against LRAT,inactive: 0.345
GCUGUUAAGUAUGCCCUUATT against AKR1A1,inactive: -0.255

Additional results follow:

| Sequence | median seed-adjusted z-score |
| --- | --- |
| GGAUAUCCGCCUUCACAGATT against BAG4 | inactive: 0.111 |
| GAAUGUAAACUAUGCGGUATT against ZNF14 | inactive: -0.0802 |
| AGCUGGUCGCUAUCUAUAATT against SYN2 | inactive: -0.375 |
| AUCCCAUGCUCUUCCUGUATT against GPR77 | inactive: 0 |
| GGCGACCAUUUAUAGGAUUTT against AASDH | inactive: 0.156 |
| GAACGAAACAGAAAGGUGATT against ABHD1 | inactive: 0.336 |
| CAAUGAUGGAGGCUAUUAUTT against EMILIN1 | inactive: 0 |
| AAGACAAGCUAAAAAUGAUTT against YWHAE | active: 1.38 |
| GAACAACUGCGGAAUCAGATT against GNB4 | inactive: 0.015 |
| GCAUAUCUGGAGUCAGCGATT against AP1G2 | inactive: 0.0657 |
| GAGCAUCGAUGGCGAGAAUTT against PDLIM7 | inactive: 0.548 |
| GAAUUAUGCGUAACCAUCUTT against MS4A3 | inactive: 0.189 |
| GACAACUAGUCAUAACAAATT against ZNF519 | inactive: 0.0162 |
| GCAUGCGAAGAAUCCGAAATT against MYO16 | inactive: -0.072 |
| GAGCUGAUGUAGUCAGUAATT against PPP1CB | inactive: -0.81 |
| GAAGAUGACUGGACUCAAATT against CTSK | inactive: 0.0972 |
| CCGCUAAAGUGGAAGCUAUTT against JARID1A | inactive: 0.189 |
| GCCUUUCACAGGUUGAUAUTT against TFIP11 | inactive: -0.0562 |
| CAGAGAAGCUAGACCUGAATT against JARID1C | inactive: 0.372 |
| ACGACACCAUGAUUGAGAATT against LHX6 | inactive: -0.717 |
| GCAUCAGUGUGGUUAGCUATT against FLOT1 | inactive: -0.685 |
| GCAGUGAAAUAUCCAUGAUTT against BRD8 | inactive: -0.133 |
| GGAGGACAAGGUUUCCUUATT against FCRL1 | inactive: -0.873 |
| GCAAAGUCCUGACCUUCGATT against SMC1A | inactive: -0.362 |
| UCACUUAGCGCUUUCAGGATT against ZNF322A | inactive: 0.0884 |
| GCACCAGCCUUAACCCUCATT against RAB1B | active: 1.55 |
| CCGAUAGAAUAAGUGCUAATT against RBM45 | inactive: -0.234 |
